The source of these data is US7767240B2, “Microbiological control in poultry processing” (priority 2001, dated 2010).

A short description of this series: Skin pigmentation, Minolta Color Meter (Example 6). Details: species or system chicken.

Structures are written as SMILES.

Consider `CC1(C)C(=O)N(Br)C(=O)N1Br` [DBDMH, 1,3-dibromo-5,5-dimethylhydantoin], for which the “Mean Pre-Chill Minolta Value L” value (20 ppm group, before chilling) amounted to 58.54 a. Moreover, under “20 ppm, after chilling”, the “Mean Post-Chill Minolta Value L” value is 53.74 a.
